The target in the assay is T1, IN–GCN2 interaction (UniProt P04585+Q9P2K8).
T1 construct: expressed as a truncated version (192-1024) in fusion after a glutathione S-transferase tag; Recombinant full-length IN was expressed in E. coli BL21 pLys; purchased SignalChem (GCN2); IN made in house in E. coli BL21 pLys E12-11G; host or cells: E. coli BL21 pLys (IN)
Nature of the assay: IN–GCN2 interaction assay (AlphaLISA). The class given is binding, HIV-1 IN / human GCN2. As to conditions: pilot screen, single dose of 100 µM; read-out: inhibition of the IN–GCN2 interaction signal. The text has this:
We developed an in vitro plate-based assay to monitor the interaction between GCN2 and IN using the AlphaLISA technology (Figure 1). Taking advantage of the tags present on each recombinant protein (6xHis for IN prepared “in-house”, and GST for GCN2 commercially available), we used specific beads that fluoresce only when they are in close proximity (<200 nm). The signal obtained (light count) is directly proportional to the binding of IN to GCN2 (homogenous solution assay at steady state). […] Accordingly, we decided to perform all further experiments at 25 nM and 700 nM for GCN2 and IN, respectively that correspond to the experimental conditions used in the in vitro phosphorylation assay.
IN–GCN2 interaction assay. Protein–protein interactions were monitored using the AlphaLISA technology (Perkin Elmer) taking advantage of the GST and 6xHis tags of GCN2 and IN, respectively. Accordingly, AlphaScreen GSH Donor beads and AlphaLISA Nickel Acceptor beads were used (Perkin Elmer). Reactions were carried out at room temperature by incubating GCN2 with drugs or DMSO for 5 min before addition of AlphaLISA Nickel Acceptor beads. […] Alpha signal was measured using an EnSight plate reader (Perkin Elmer) 120 min after the addition of the latest component of the reaction (unless indicated otherwise).

By UniProt entry, the sequences of proteins in these tests, tags left out. Residues count along the entry.
UniProt Q9P2K8, 192-1024: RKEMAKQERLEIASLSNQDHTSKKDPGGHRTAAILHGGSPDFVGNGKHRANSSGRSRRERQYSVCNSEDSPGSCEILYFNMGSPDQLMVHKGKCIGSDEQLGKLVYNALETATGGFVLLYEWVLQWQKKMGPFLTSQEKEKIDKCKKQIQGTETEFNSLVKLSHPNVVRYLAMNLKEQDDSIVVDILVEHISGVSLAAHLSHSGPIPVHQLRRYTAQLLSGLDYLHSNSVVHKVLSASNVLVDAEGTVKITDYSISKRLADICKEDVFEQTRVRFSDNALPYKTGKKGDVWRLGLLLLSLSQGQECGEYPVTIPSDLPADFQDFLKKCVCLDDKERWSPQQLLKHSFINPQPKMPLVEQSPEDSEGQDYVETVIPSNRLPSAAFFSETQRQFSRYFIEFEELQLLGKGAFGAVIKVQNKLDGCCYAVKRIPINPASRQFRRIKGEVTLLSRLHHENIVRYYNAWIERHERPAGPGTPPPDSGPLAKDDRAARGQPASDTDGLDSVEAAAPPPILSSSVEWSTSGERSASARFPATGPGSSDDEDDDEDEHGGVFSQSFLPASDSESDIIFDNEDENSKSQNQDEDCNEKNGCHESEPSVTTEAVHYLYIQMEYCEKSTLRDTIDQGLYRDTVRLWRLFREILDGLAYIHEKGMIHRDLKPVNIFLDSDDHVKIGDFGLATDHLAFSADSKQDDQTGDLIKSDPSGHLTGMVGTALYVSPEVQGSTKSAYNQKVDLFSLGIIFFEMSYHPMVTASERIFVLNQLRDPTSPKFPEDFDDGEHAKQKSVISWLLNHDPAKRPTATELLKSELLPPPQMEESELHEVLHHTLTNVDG

Counter-ions that a name gives are not always drawn.

For `CC/C(=C(\c1ccccc1)c1ccc(OCCN(C)C)cc1)c1ccccc1` [NSC180973, Tamoxifen citrate], the inhibition at 100 µM stood at 89.8%.

(Values after PMC8434491, “Targeting the Integrated Stress Response Kinase GCN2 to Modulate Retroviral Integration” (Molecules, 2021).)
